Data as given in PubChem BioAssay AID504774 (Drosophila RNAi Screening Center, 2011).

Assay: 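Knock-downs that shift viability of MMS-exposed cells relative to untreated ones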 (primary screen)
System: Drosophila Kc167 cells
Reagent: long dsRNA against Drosophila genes, about 0.25 µg dsRNA per well
Duration: about 6 days: 3 days knock-down, then 3 days with or without MMS
Treatment: methyl methanesulphonate 0.004% (w/v) for 3 days after knock-down
Measured: 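ATP-dependent luminescence as a measure of live cells in MMS-exposed wells, quantile normalised within each plate, with replicate values also given as a mean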
Direction: mean viability with MMS and viability with MMS: higher = more surviving cells after MMS
In all, the deposit lists about 23,000 reagents; this is an unselected part of those that have a named target and a result. 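Values are quantile-normalised luminescence on an arbitrary scale; higher means more cells surviving MMS.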 The numbers tell different reagents against one gene apart. A plus sign joins genes that one reagent is predicted to hit.

Target gene	reagent no.	mean viability with MMS	viability with MMS, replicate 1	viability with MMS, replicate 2
Su(var)3-3	1	3.54e6	4.00e6	4.00e6
Zaf1	1	3.76e6	4.12e6	4.25e6
mh	1	3.58e6	4.10e6	4.01e6
CG12849	1	3.47e6	3.93e6	3.91e6
lncRNA:CR42862	1	3.47e6	3.85e6	4.00e6
CG14104	1	3.86e6	4.24e6	4.28e6
CG17221	1	3.43e6	4.01e6	3.75e6
CG9915	1	3.46e6	3.89e6	3.99e6
AspRS	1	3.41e6	3.87e6	3.83e6
ppk18	1	3.56e6	4.08e6	4.00e6
mRpL48	1	3.45e6	3.87e6	3.93e6
CG4650	1	3.47e6	3.96e6	3.91e6
CG33155 + mRpL53	1	3.61e6	4.07e6	4.06e6
Prosbeta6	1	3.23e6	3.71e6	3.62e6
CG33506	1	3.32e6	3.78e6	3.72e6
CG5697	1	3.49e6	3.94e6	3.99e6
CG11109	1	3.52e6	3.94e6	4.01e6
CG15012	1	3.72e6	4.25e6	4.20e6
H	1	3.52e6	4.08e6	3.89e6
Rrp42	1	3.60e6	4.03e6	4.13e6
CG4115	1	3.57e6	3.99e6	4.09e6
Axn	1	3.99e6	4.63e6	4.53e6
Dph5	1	3.43e6	3.91e6	3.88e6
CG6403	1	3.58e6	4.04e6	4.06e6
PhKgamma	1	3.48e6	4.15e6	3.66e6
CG1662	1	3.57e6	4.14e6	4.02e6
sad	1	3.51e6	3.98e6	4.00e6
CG33007 (retired record)	1	3.48e6	4.02e6	3.89e6
GstO1	1	3.56e6	3.95e6	4.14e6
CG8004	1	3.58e6	4.05e6	4.07e6
CG3494	1	3.45e6	3.84e6	3.95e6
CG12290	1	3.67e6	4.14e6	4.15e6
CAH2	1	3.59e6	4.00e6	4.12e6
MED24	1	3.29e6	3.66e6	3.71e6

Not a retest: entries from further up.
Target gene	reagent no.	mean viability with MMS	viability with MMS, replicate 1	viability with MMS, replicate 2
CG1662	1	3.57e6	4.14e6	4.02e6
sad	1	3.51e6	3.98e6	4.00e6
CG33007 (retired record)	1	3.48e6	4.02e6	3.89e6
GstO1	1	3.56e6	3.95e6	4.14e6
CG8004	1	3.58e6	4.05e6	4.07e6

Next reagents follow:
Target gene	reagent no.	mean viability with MMS	viability with MMS, replicate 1	viability with MMS, replicate 2
CG17167	1	3.48e6	3.93e6	3.98e6
CG17167	2	3.49e6	3.97e6	3.96e6
unc	1	3.42e6	3.82e6	3.93e6
CG5126	1	3.55e6	4.07e6	3.97e6
CG9536	1	3.51e6	3.91e6	4.04e6
CG31697	1	3.51e6	4.04e6	3.94e6
Eogt	1	3.43e6	3.81e6	3.88e6
CG30457	1	3.81e6	3.90e6	3.97e6
CD98hc	1	3.42e6	3.92e6	3.86e6
spab	1	3.69e6	4.10e6	4.15e6
Ada2b	1	3.41e6	3.86e6	3.90e6
RpL10Aa	1	3.45e6	3.96e6	3.84e6
CtsF	1	3.65e6	4.34e6	3.87e6
CtsF	2	3.51e6	4.15e6	3.81e6
CtsF	3	3.36e6	3.80e6	3.86e6
CG17562	1	3.54e6	4.06e6	4.00e6
Rpn11	1	2.85e6	3.30e6	3.23e6
whe	1	3.56e6	4.03e6	4.04e6
CG14877	1	3.62e6	4.10e6	4.15e6
CG15356	1	3.39e6	3.80e6	3.84e6
alien	1	3.41e6	4.06e6	3.60e6
Rab9	1	3.62e6	4.11e6	4.09e6
shn	1	3.48e6	4.01e6	3.93e6
shn	2	3.57e6	4.03e6	4.07e6
Acph-1	1	3.33e6	3.68e6	3.76e6
CG42780	1	3.54e6	4.02e6	4.01e6
Cdc45	1	2.99e6	3.62e6	3.71e6
Cdc45	2	3.48e6	3.95e6	3.95e6
PGRP-SB2	1	3.48e6	3.93e6	3.93e6
CR33317	1	3.64e6	4.07e6	4.19e6
CG13084	1	3.56e6	3.94e6	4.14e6
CG12860	1	3.63e6	4.27e6	4.03e6
CG15252	1	3.59e6	4.20e6	3.92e6
CG12009	1	3.73e6	4.22e6	4.24e6
